From publication PMC8363638
No constants are given. Whether binding was seen depends on the method and setting. In cells and extracts the contact can be indirect. Sequences can lack the tags named with a protein.

T1: GST-SPF45 (human), Q96I25
T1 chain: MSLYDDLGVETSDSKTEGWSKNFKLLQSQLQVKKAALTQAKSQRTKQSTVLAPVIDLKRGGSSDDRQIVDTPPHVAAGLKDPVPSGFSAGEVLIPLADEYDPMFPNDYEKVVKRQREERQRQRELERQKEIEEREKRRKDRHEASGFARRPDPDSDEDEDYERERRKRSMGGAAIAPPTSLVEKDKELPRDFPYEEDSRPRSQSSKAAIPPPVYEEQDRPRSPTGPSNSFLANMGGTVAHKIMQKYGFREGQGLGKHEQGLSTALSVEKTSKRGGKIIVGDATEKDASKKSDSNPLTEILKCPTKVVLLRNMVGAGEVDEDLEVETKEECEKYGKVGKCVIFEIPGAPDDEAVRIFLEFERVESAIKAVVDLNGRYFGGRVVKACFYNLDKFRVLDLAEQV

T2: GST-SPF45 (human) (UniProt Q96I25)
T2 sequence: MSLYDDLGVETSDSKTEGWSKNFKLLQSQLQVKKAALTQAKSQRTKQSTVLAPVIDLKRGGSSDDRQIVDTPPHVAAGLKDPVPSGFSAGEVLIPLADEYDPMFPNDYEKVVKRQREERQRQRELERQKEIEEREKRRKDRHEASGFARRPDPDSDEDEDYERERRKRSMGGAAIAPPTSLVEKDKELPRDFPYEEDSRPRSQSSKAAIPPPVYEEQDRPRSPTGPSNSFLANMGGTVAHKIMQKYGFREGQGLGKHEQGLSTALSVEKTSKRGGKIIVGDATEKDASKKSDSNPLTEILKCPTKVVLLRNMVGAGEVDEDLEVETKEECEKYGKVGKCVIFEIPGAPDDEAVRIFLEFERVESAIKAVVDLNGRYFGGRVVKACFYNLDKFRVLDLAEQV

B1: SF1, Q15637 1-639 (protein)
chain: MATGANATPLDFPSKKRKRSRWNQDTMEQKTVIPGMPTVIPPGLTREQERAYIVQLQIEDLTRKLRTGDLGIPPNPEDRSPSPEPIYNSEGKRLNTREFRTRKKLEEERHNLITEMVALNPDFKPPADYKPPATRVSDKVMIPQDEYPEINFVGLLIGPRGNTLKNIEKECNAKIMIRGKGSVKEGKVGRKDGQMLPGEDEPLHALVTANTMENVKKAVEQIRNILKQGIETPEDQNDLRKMQLRELARLNGTLREDDNRILRPWQSSETRSITNTTVCTKCGGAGHIASDCKFQRPGDPQSAQDKARMDKEYLSLMAELGEAPVPASVGSTSGPATTPLASAPRPAAPANNPPPPSLMSTTQSRPPWMNSGPSESRPYHGMHGGGPGGPGGGPHSFPHPLPSLTGGHGGHPMQHNPNGPPPPWMQPPPPPMNQGPHPPGHHGPPPMDQYLGSTPVGSGVYRLHQGKGMMPPPPMGMMPPPPPPPSGQPPPPPSGPLPPWQQQQQQPPPPPPPSSSMASSTPLPWQQNTTTTTTSAGTGSIPPWQQQQAAAAASPGAPQMQGNPTMVPLPPGVQPPLPPGAPPPPPPPPPGSAGMMYAPPPPPPPPMDPSNFVTMMGMGVAGMPPFGMPPAPPPPPPQN
B2: U2AF^65, P26368 1-475 (protein)
chain: MSDFDEFERQLNENKQERDKENRHRKRSHSRSRSRDRKRRSRSRDRRNRDQRSASRDRRRRSKPLTRGAKEEHGGLIRSPRHEKKKKVRKYWDVPPPGFEHITPMQYKAMQAAGQIPATALLPTMTPDGLAVTPTPVPVVGSQMTRQARRLYVGNIPFGITEEAMMDFFNAQMRLGGLTQAPGNPVLAVQINQDKNFAFLEFRSVDETTQAMAFDGIIFQGQSLKIRRPHDYQPLPGMSENPSVYVPGVVSTVVPDSAHKLFIGGLPNYLNDDQVKELLTSFGPLKAFNLVKDSATGLSKGYAFCEYVDINVTDQAIAGLNGMQLGDKKLLVQRASVGAKNATLVSPPSTINQTPVTLQVPGLMSSQVQMGGHPTEVLCLMNMVLPEELLDDEEYEEIVEDVRDECSKYGLVKSIEIPRPVDGVEVPGCGKIFVEFTSVFDCQKAMQGLTGRKFANRVVVTKYCDPDSYHRRDFW
B3: U2AF^35 (protein, UniProt Q01081 1-240)
chain: MAEYLASIFGTEKDKVNCSFYFKIGACRHGDRCSRLHNKPTFSQTIALLNIYRNPQNSSQSADGLRCAVSDVEMQEHYDEFFEEVFTEMEEKYGEVEEMNVCDNLGDHLVGNVYVKFRREEDAEKAVIDLNNRWFNGQPIHAELSPVTDFREACCRQYEMGECTRGGFCNFMHLKPISRELRRELYGRRRKKHRSRSRSRERRSRSRDRGRGGGGGGGGGGGGRERDRRRSRDRERSGRF

Key:
[1] = biological target: T1, GST-SPF45 (human), Q96I25; assay: pull-down; GST fusion protein (5 µg) incubated at 30 °C for 15 min in 100 µL with 30% HeLa cell nuclear extract; RNase A treatment; NET2 buffer [50 mM Tris (pH 7.5), 150 mM NaCl, 0.05% Nonidet P-40]; Glutathione Sepharose 4B, 4 °C for 3 h; six washes; Western blotting; only the target purified; details: remark: other sources report otherwise
[2] = biological target: T2, GST-SPF45 (human); assay: as above

Row | Binder | binding [1] | binding [2]
1 | B1 | no binding | 
2 | B2 | no binding | 
3 | B3 |  | no binding
